Measured values taken from paper PMC8528870.
These are yes or no findings as the source states them, for the method shown. In cells and extracts the contact can be indirect. Some entries that bind do so weakly or less than the wild type.

The chains behind the UniProt entries cited, without tags or fusion partners. Residues count along the entry.
UniProt Q9H4A6: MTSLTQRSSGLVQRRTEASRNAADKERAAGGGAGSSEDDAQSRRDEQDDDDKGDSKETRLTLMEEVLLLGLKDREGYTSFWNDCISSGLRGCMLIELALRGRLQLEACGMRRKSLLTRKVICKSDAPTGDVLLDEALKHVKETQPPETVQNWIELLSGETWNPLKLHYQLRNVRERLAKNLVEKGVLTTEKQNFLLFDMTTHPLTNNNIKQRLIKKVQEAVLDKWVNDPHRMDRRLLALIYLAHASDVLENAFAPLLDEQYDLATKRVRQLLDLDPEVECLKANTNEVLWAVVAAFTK
UniProt P56704, residues 19-352: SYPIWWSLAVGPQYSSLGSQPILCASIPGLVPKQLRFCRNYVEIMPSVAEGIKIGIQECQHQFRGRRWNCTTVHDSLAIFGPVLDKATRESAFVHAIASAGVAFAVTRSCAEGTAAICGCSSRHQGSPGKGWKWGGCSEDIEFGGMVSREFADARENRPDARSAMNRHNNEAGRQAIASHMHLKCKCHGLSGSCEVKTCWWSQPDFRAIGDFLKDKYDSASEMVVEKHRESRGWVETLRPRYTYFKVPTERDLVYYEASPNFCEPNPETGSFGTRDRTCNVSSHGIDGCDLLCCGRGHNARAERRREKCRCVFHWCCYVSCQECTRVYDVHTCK
UniProt Q07065: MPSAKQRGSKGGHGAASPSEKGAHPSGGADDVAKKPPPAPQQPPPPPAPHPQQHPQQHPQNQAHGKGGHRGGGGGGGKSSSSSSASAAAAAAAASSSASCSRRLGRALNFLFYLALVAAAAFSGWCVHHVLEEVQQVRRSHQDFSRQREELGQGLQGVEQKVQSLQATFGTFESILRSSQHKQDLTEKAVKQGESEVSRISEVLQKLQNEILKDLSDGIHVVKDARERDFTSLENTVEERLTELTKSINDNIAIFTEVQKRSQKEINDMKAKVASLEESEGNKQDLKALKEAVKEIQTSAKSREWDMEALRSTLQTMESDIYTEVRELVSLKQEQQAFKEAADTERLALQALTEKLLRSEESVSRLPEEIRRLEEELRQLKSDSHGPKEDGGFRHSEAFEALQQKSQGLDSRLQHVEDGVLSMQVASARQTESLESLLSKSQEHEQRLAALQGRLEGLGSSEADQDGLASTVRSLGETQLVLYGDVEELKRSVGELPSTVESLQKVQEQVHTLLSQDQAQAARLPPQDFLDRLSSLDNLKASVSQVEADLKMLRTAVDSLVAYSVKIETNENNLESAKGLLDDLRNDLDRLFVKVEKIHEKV

Key:
[1] = molecular target: Golgi phosphoprotein 3 (GOLPH3), endogenous (human (endogenous in A549 and NCI-H460)) (UniProt Q9H4A6); experiment: co-IP; endogenous proteins in A549 and NCI-H460 cells; precipitating antibody not told
[2] = molecular target: WNT3A, exosomal (human (endogenous in NSCLC cell lines)) (UniProt P56704); experiment: co-IP; in exosomes derived from GOLPH3-overexpressing cells; precipitating antibody not told
[3] = molecular target: Golgi phosphoprotein 3 (GOLPH3), endogenous (human (endogenous in A549 and NCI-H460)) (UniProt Q9H4A6); experiment: proximity ligation; endogenous proteins in fixed, permeabilised A549 and NCI-H460 cells; mouse anti-GOLPH3 and rabbit anti-CKAP4, Duolink kit
[4] = molecular target: SFB-GOLPH3 (Golgi phosphoprotein 3) (human) (UniProt Q9H4A6); experiment: proximity ligation; A549 and NCI-H460 cells transfected with SFB-Vector or SFB-GOLPH3, fixed and permeabilised; mouse anti-FLAG and rabbit anti-CKAP4, Duolink kit
[5] = molecular target: SFB-GOLPH3 (Golgi phosphoprotein 3) (human) (UniProt Q9H4A6); experiment: co-IP; A549 and NCI-H460 cells transiently transfected with SFB-vector or SFB-GOLPH3; lysate in IP lysis buffer, anti-FLAG antibody-cross-linked protein G-agarose beads overnight at 4 °C, six washes, western blot

binding [1]: binds
binding [2]: binds
binding [3]: binds
binding [4]: binds
binding [5]: binds
Substance: cytoskeleton-associated protein 4 (CKAP4), endogenous (from UniProt Q07065 1-602)
